Literature values in US11850291B2, “PSMA targeted radiotherapy medicine and preparation method thereof” (NATIONAL ATOMIC RESEARCH INSTITUTE, priority 2019, dated 2023).

Columns and labels:
[1] = tested on: prostate cancer (PCa)
[2] = tested on: prostate cancer (PCa) bone metastasis; details: clinical studies

In the case of C[N+](C)([11CH3])CCO [C-11-Choline], the “sensitivity for primary prostate cancer” value ([1]; PET compared with MRI, Yamaguchi 2005) is listed as about 100% and the “positive rate of PET diagnosis of prostate cancer” value ([1]; in vivo) is listed as 47%.
In the case of C[N+](C)(C[18F])CCO [F-18-FECH, N-[F-18]fluoromethyl choline], the “sensitivity of tumor diagnosis” value ([1]; in vivo) is given as 84.7% and the “specificity of tumor diagnosis” value ([1]; in vivo) is given as 91.1%.
For [18F-].[Na+] [F-18-NaF], the “positive rate of PET diagnosis of prostate cancer” value ([1]; in vivo) is listed as 27%, the “sensitivity for prostate cancer bone metastasis” value [2] is listed as 93% and the “specificity for prostate cancer bone metastasis” value [2] is listed as 54%.
